This note sets out measurements from publication PMC8799570.

In experiment [1] the target is T1, TRAF2 (human (endogenous in AGS)) (UniProt Q12933).
T1 sequence: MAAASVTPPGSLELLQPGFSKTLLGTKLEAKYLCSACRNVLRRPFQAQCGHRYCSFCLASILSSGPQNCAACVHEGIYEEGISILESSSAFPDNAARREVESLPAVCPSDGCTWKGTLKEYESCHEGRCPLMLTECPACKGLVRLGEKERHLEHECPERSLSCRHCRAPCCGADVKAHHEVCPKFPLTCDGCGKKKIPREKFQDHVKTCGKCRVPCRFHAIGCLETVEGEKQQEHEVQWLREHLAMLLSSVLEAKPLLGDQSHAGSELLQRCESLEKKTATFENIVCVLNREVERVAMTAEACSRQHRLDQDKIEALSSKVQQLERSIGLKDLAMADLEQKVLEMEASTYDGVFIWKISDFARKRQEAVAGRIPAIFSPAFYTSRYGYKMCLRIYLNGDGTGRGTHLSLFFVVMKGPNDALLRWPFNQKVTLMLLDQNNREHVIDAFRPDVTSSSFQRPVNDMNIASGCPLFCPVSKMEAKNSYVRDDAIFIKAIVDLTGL
Description: co-IP.

The target in experiment [2] is T2, recombinant human A20 protein (human) (UniProt P21580).
T2 sequence: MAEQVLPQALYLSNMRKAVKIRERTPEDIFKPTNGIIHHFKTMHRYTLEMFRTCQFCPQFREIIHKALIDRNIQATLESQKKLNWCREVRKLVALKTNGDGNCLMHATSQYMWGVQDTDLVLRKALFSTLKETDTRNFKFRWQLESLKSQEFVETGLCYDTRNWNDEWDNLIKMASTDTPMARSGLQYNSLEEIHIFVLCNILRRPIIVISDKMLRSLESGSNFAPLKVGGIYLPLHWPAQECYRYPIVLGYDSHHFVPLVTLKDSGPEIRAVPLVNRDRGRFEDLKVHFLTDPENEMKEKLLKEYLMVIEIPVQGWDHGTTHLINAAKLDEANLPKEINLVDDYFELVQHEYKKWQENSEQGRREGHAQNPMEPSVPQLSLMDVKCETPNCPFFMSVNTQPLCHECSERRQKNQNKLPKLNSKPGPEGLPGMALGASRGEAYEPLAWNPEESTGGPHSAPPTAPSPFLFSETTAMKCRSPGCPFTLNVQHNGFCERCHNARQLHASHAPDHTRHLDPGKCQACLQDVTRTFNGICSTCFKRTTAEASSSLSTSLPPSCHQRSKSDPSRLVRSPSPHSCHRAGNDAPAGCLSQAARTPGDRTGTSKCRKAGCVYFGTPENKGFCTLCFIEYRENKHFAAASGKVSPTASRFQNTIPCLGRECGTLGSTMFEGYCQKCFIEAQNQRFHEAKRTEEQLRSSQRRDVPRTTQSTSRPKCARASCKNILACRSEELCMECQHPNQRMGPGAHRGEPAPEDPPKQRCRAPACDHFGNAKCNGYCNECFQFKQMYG
Description: co-IP; 50 ng recombinant human A20 and TIFA combined in 500 μl PBS for 1 h at 4 °C, then IP with 1 µg antibody against A20 or isotype-matched IgG for 1 h, immunoblot; both purified.

Results are given in words; binding and its absence hold for the method and conditions named. For some assays here: Binding seen in cells or lysates may run through a third protein. Some entries that bind do so weakly or less than the wild type.

B1: tumor necrosis factor receptor-associated factor-interacting protein with forkhead-associated domain (TIFA) (protein, UniProt Q96CG3 1-184)
chain: MTSFEDADTEETVTCLQMTVYHPGQLQCGIFQSISFNREKLPSSEVVKFGRNSNICHYTFQDKQVSRVQFSLQLFKKFNSSVLSFEIKNMSKKTNLIVDSRELGYLNKMDLPYRCMVRFGEYQFLMEKEDGESLEFFETQFILSPRSLLQENNWPPHRPIPEYGTYSLCSSQSSSPTEMDENES
As for B1, the binding entry in experiment [1] is given as “binds”.

B2: recombinant human TIFA protein (protein, UniProt Q96CG3 1-184)
chain: MTSFEDADTEETVTCLQMTVYHPGQLQCGIFQSISFNREKLPSSEVVKFGRNSNICHYTFQDKQVSRVQFSLQLFKKFNSSVLSFEIKNMSKKTNLIVDSRELGYLNKMDLPYRCMVRFGEYQFLMEKEDGESLEFFETQFILSPRSLLQENNWPPHRPIPEYGTYSLCSSQSSSPTEMDENES
On to B2, for which the binding entry in experiment [2] is “binds”.
